PubChem BioAssay AID720710, VTT Finland | 2013

Assay: 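siRNAs sensitising CCNE1-overexpressing U-2 OS cells to replication stress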 (primary screen)
System: human U-2 OS bone cancer cells, parental and a cyclin E (CCNE1) overexpressing line
Reagents: single siRNA against human genes, 1 µM siRNA in the printed spot mix
Time to read-out: 67 h
Treatment: half the arrays: hydroxyurea 2 mM for 16 h, then 3 h recovery; other arrays untreated
Measurement: 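EdU click signal imaged per DAPI-stained nucleus at 67 h; each spot divided by its subgrid median, then z-scored relative to non-targeting control spots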
Reading the numbers: EdU z-score, cyclin E line, hydroxyurea and EdU z-score, parental, hydroxyurea: higher = more DNA synthesis than non-targeting controls
In all, the deposit lists about 1,380 reagents; this is a random part of them. 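One array per condition without replicates; hydroxyurea arrays received 2 mM for 16 h plus 3 h recovery.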 The numbers tell different reagents against one gene apart. Further read-outs or replicates are left out here.

Gene | reagent | EdU z-score, cyclin E line, hydroxyurea | EdU z-score, parental, hydroxyurea
BRCC3 (BRCA1/BRCA2-containing complex subunit 3) | 1 | -0.519 | -0.932
BRCC3 (BRCA1/BRCA2-containing complex subunit 3) | 2 | 2.93 | -0.321
NAP1L4 (nucleosome assembly protein 1 like 4) | 1 | -1.07 | 0.542
NAP1L4 (nucleosome assembly protein 1 like 4) | 2 | 2.91 | 2.26
POLB (DNA polymerase beta) | 1 | 0.0294 | -2.67
POLB (DNA polymerase beta) | 2 | 0.0345 | 6.04
VPS4A (vacuolar protein sorting 4 homolog A) | 1 | -1.2 | -2.26
VPS4A (vacuolar protein sorting 4 homolog A) | 2 | -0.883 | -0.136
SPATA18 (spermatogenesis associated 18) | 1 | -0.982 | -0.856
SPATA18 (spermatogenesis associated 18) | 2 | 1.74 | 1.18
SMARCAD1 (SNF2 related chromatin remodeling ATPase with DExD box 1) | 1 | -1.26 | 0.466
SMARCAD1 (SNF2 related chromatin remodeling ATPase with DExD box 1) | 2 | 1.13 | 1.86
SMARCD3 (SWI/SNF related BAF chromatin remodeling complex subunit D3) | 1 | -2.35 | -2.66
SMARCD3 (SWI/SNF related BAF chromatin remodeling complex subunit D3) | 2 | -1.38 | -0.79
H2BC12 (H2B clustered histone 12) | 1 | 1.02 | -1.66
H2BC12 (H2B clustered histone 12) | 2 | 1.55 | 1.02
RBBP8 (RB binding protein 8, endonuclease) | 1 | -2.21 | -0.28
RBBP8 (RB binding protein 8, endonuclease) | 2 | 0.285 | 0.605
RUVBL1 (RuvB like AAA ATPase 1) | 1 | -2.06 | 0.0727
RUVBL1 (RuvB like AAA ATPase 1) | 2 | -0.0983 | 2.4
RNF123 (ring finger protein 123) | 1 | -0.977 | -2.26
RNF123 (ring finger protein 123) | 2 | 0.205 | 2.32
INO80 (INO80 complex ATPase subunit) | 1 | -0.888 | -0.692
INO80 (INO80 complex ATPase subunit) | 2 | -0.106 | 0.191

Targets listed so far whose target name begins with B or b (2):
Gene | reagent | EdU z-score, cyclin E line, hydroxyurea | EdU z-score, parental, hydroxyurea
BRCC3 (BRCA1/BRCA2-containing complex subunit 3) | 1 | -0.519 | -0.932
BRCC3 (BRCA1/BRCA2-containing complex subunit 3) | 2 | 2.93 | -0.321
